Results taken from publication PMC9992707.
No constants are given. Whether binding was seen depends on the method and setting. Binding seen in cells or lysates may run through a third protein. Some entries that bind do so weakly or less than the wild type. Sequences can lack the tags named with a protein.

Target: T1, RIP1-HA, Q60855
T1 chain: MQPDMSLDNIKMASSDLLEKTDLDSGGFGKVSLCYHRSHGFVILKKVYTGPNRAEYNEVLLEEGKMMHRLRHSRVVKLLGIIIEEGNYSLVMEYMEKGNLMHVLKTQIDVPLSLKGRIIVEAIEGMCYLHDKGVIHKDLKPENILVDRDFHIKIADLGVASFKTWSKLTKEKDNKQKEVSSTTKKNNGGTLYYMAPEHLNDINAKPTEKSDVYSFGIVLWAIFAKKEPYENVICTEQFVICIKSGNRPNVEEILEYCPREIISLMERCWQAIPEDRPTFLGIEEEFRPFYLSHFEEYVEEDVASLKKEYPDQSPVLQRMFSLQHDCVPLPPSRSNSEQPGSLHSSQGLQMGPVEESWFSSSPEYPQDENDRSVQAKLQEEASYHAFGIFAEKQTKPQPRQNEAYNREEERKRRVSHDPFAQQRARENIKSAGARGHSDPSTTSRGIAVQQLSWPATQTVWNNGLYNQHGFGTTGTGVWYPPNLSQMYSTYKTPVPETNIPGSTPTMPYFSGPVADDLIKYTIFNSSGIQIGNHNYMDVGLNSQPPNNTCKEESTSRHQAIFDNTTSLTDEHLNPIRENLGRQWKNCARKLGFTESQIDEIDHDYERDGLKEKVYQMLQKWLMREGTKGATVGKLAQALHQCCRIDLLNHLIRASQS
Assay: co-IP; lysate of Setdb1 cKO mES cells overexpressing 3×Flag-HA-ZBP1 or RIP1-HA (Setdb1 knockout, 2iL condition); lysis buffer 50 mM Tris-HCl pH 7.4, 1% NP-40, 150 mM NaCl, 1 mM EDTA, 5% glycerol; anti-HA magnetic beads or anti-Flag M2 beads, 3 h at 4 °C; 5 washes
Conditions: remark: other sources report otherwise

- binding: binds
B1: RIPK3, Q9QZL0 1-486 (protein)
chain: MSSVKLWPTGASAVPLVSREELKKLEFVGKGGFGVVFRAHHRTWNHDVAVKIVNSKKISWEVKAMVNLRNENVLLLLGVTEDLQWDFVSGQALVTRFMENGSLAGLLQPECPRPWPLLCRLLQEVVLGMCYLHSLNPPLLHRDLKPSNILLDPELHAKLADFGLSTFQGGSQSGSGSGSGSRDSGGTLAYLDPELLFDVNLKASKASDVYSFGILVWAVLAGREAELVDKTSLIRETVCDRQSRPPLTELPPGSPETPGLEKLKELMIHCWGSQSENRPSFQDCEPKTNEVYNLVKDKVDAAVSEVKHYLSQHRSSGRNLSAREPSQRGTEMDCPRETMVSKMLDRLHLEEPSGPVPGKCPERQAQDTSVGPATPARTSSDPVAGTPQIPHTLPFRGTTPGPVFTETPGPHPQRNQGDGRHGTPWYPWTPPNPMTGPPALVFNNCSEVQIGNYNSLVAPPRTTASSSAKYDQAQFGRGRGWQPFHK
